Experimental data from US9150539B2, “Crystalline form of a reverse transcriptase inhibitor” (Merck Sharp & Dohme Corp., priority 2012, dated 2015).
Some entries share one result that the patent states for a list of compounds.

Assay: Relative thermodynamic stability of crystalline anhydrous Forms I and II (competitive slurry experiments)
Format: physicochemical
Conditions: AHI/AHII
Experimental: Competitive slurry experiments were conducted to determine the relative stability of anhydrous Form I and II.

With Cn1c(Cn2ccc(C(F)(F)F)c(Oc3cc(Cl)cc(C#N)c3)c2=O)n[nH]c1=O [anhydrous Form I, 3-chloro-5-({1-[(4-methyl-5-oxo-4,5-dihydro-1H-1,2,4-triazol-3-yl)methyl]-2-oxo-4-(trifluoromethyl)-1,2-dihydropyridin-3-yl}oxy)benzonitrile] as the compound, how does the “transition temperature of enantiotropic polymorphs” value read?
The value was 60-70 °C.
